The target of the assay is full-length OrfG (BACTH fusion) (Streptococcus thermophilus). Kind of assay: two-hybrid; bacterial two-hybrid (BACTH), T18 and T25 fusions co-expressed in E. coli DHT1, 30°C, X-Gal plates and β-galactosidase activity.

These are yes or no findings as the source states them, for the method shown. Tags and fused reporters may be left off the sequences shown.

B1: OrfE (BACTH fusion) (protein, UniProt Q935T1 1-125)
chain: MTNERLYDYSKGLNAPYWIQEIKTKKGIRLWYFATPMQLSFFIVFTFVFVAMLLFGGFILVPLAKFTHSISLLLYWYLPYKLAKFYTEYEPHGKKMHVFIGDCLIYFWDFKLNKKAIYHEDRIDQ
For the molecule B1, the binding entry is on record as “no binding”.

Values taken from publication PMC11753425.
